In PubChem BioAssay AID1347076 (National Center for Advancing Translational Sciences (NCATS), 2019):
About 13,000 (3.2%) of roughly 400,000 compounds were called active. Inconclusive results, whose numbers are uncertain, are shown with a selection of clear calls. The call rests on the fitted dose curve; in most records, active means well fitted cell-killing curve with a large enough effect; inconclusive means small, poorly fitted or top-dose-only effect, or effect the other way; inactive means flat fitted curve, though single readings scatter. Potencies beside an inconclusive call are fits to weak or partial responses and may not hold up.

Test: qHTS assay for MDR1-selective chemotherapeutics: Primary screen using the drug-selected MDR subline cells KB-V1; further: nearly all actives have a fitted effect of over 60% in size
Settings: KB-V1 MDR cells viability, CellTiter-Glo, 72 h; activity change, negative = cytotoxicity: at 46.1 µM (top of the series)
Outline: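 Cytotoxicity toward P-gp-expressing KB-V1 cells was determined as loss of CellTiter-Glo luminescence after 72 h at 37 degrees C. Compounds were tested in quantitative HTS format across a concentration range, with curves fitted to normalized data.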
On the % scale 0 is the no-effect control and ±100 the full control effect; potency means the concentration at half of the fitted maximal effect.

| SMILES | Potency | activity change, negative = cytotoxicity |
| --- | --- | --- |
| Cc1nn(-c2ccccc2)c2c1C(O)CC(C)(C)C2 (stereo not given) | inconclusive: 29.1 µM [rising, single point] | – |
| Clc1cnc(N/N=C/c2ccco2)c(Cl)c1 | inconclusive: 20.6 µM [cytotoxic, single point] | – |
| COc1ccccc1NC(=O)CSC1=Nc2ccccc2N=C(c2ccc(F)cc2)C1 | inconclusive: 29.1 µM [rising, single point] | – |
| Cc1cccc(-n2c3nc(=O)[nH]c(=O)c-3cc3c(C)nn(-c4ccccc4)c32)c1C | inconclusive: 18.4 µM [rising, single point] | – |
| CN(C)c1ccc(CCc2ccc(N)cc2)cc1 | – | inactive: -4.84% |
| CC(=O)Nc1cccc(Oc2ncnc3scc(-c4ccc(C(C)C)cc4)c23)c1 | active: 20.6 µM | – |
| O=C(Nc1ccc(F)cc1F)c1ccc(S(=O)(=O)NCc2ccco2)cc1 | inconclusive: 2.91 µM [rising, partial curve] | – |
| COc1ccc(C(=O)CC(=O)c2ccc(F)cc2)cc1 | – | inactive: -21% |
| COc1ccc(NC(=S)NC(=O)c2csnn2)cc1 | inconclusive: 9.2 µM [rising, partial curve, poor fit] | – |
| Cc1ccc(C)c(NC(=O)CCC(=O)NNC(=S)Nc2ccccc2)c1 | – | inactive: 15.7% |
| COc1ccc(/C=C/C(=O)c2ccc(Cl)cc2)c(OC)c1 | inconclusive: 14.6 µM [cytotoxic, partial curve] | – |
| O=c1oc(Nc2cccc(F)c2)nc2ccccc12 | inconclusive: 11.6 µM [rising, partial curve] | – |
| CC1CCC(NC(=O)COC(=O)CNC(=O)c2ccc3ccccc3c2)CC1 (stereo not given) | inconclusive: 29.1 µM [rising, single point] | – |
| CN(C)C1C(=O)c2ccccc2C1=O | – | inactive: 3.63% |
| COc1ccc(-n2ncc3c(NCC(C)C)ncnc32)cc1 | inconclusive: 29.1 µM [cytotoxic, single point] | – |
| CCN1CCN(C(=O)CN(c2ccc(F)cc2)S(=O)(=O)c2ccc(OC)c(OC)c2)CC1 | inconclusive: 29.1 µM [cytotoxic, single point] | – |
| CN(C)N1C(N)=C(C#N)C(c2cccnc2)C2=C1CCCC2=O (stereo not given) | – | inactive: 19% |
| CCCc1nccn1S(=O)(=O)c1cc(Br)ccc1OC | – | inactive: 1.1% |
| CNC(=O)c1c(NC(=O)CCS(=O)(=O)c2ccc(F)cc2)sc(C)c1C | inconclusive: 18.4 µM [cytotoxic, single point] | – |
| Cc1ccc(NC(=O)Cn2c(-c3cncs3)nc3ccccc32)cc1Br | – | inactive: 10.6% |
| CC(C)NC(=O)NC(=O)CSc1nnc(COc2ccccc2F)n1C(C)C1CC2CCC1C2 (stereo not given) | – | inactive: 0% |
| COc1ccc(C(=O)N2CCN(c3ccc(C)c(C)c3)CC2)cc1OC | inconclusive: 18.4 µM [cytotoxic, partial curve, poor fit] | – |
| Cc1ccc(C(=O)N2CCCC(CCC(=O)N3CCN(c4ccccn4)CC3)C2)cc1C (stereo not given) | inconclusive: 2.06 µM [cytotoxic, partial curve] | – |
| O=C(/C=C/c1ccccc1)N1CCN(Cc2nc3ccccc3c(=O)[nH]2)CC1 | inconclusive: 16.4 µM [cytotoxic, partial curve] | – |

In another format: 3 of the compounds above.
SMILES	Potency	activity change, negative = cytotoxicity
CC(=O)Nc1cccc(Oc2ncnc3scc(-c4ccc(C(C)C)cc4)c23)c1	active: 20.6 µM	–
O=C(Nc1ccc(F)cc1F)c1ccc(S(=O)(=O)NCc2ccco2)cc1	inconclusive: 2.91 µM [rising, partial curve]	–
COc1ccc(C(=O)CC(=O)c2ccc(F)cc2)cc1	–	inactive: -21%

Molecules from the list above that have bromine:

| SMILES | Potency | activity change, negative = cytotoxicity |
| --- | --- | --- |
| CCCc1nccn1S(=O)(=O)c1cc(Br)ccc1OC | – | inactive: 1.1% |
| Cc1ccc(NC(=O)Cn2c(-c3cncs3)nc3ccccc32)cc1Br | – | inactive: 10.6% |

(next part)

| SMILES | Potency | activity change, negative = cytotoxicity |
| --- | --- | --- |
| N#CC1c2ccccc2-c2ccccc2N1C(=O)c1ccccc1 (stereo not given) | active: 14.6 µM | – |
| CC(C)(C)C(=O)N1NC(=Nc2ccccc2)SC1(C)C | – | inactive: -3.64% |
| O=C(CN1C(=O)NC2(CCCCC2)C1=O)N1CCN(S(=O)(=O)c2ccc(F)cc2)CC1 | inconclusive: 8.2 µM [rising, partial curve, poor fit] | – |
| COc1ccccc1N1CCN(CCCCOc2cccc3ccccc23)CC1 | – | inactive: -7.85% |
| CCN(C[C@H]1N[C@@](Cc2ccccc2)(C(=O)OC)[C@H]2C(=O)N(C)C(=O)[C@@H]12)S(=O)(=O)c1ccc(-c2ccccc2)cc1 | inconclusive: 23.1 µM [rising, single point] | – |
| Cn1nc(C(C)(C)C)cc1C(=O)NNC(=O)c1cccc(Cl)c1 | – | inactive: -23.8% |
| COc1cc2c(C(=O)N(C)c3cc(Cl)ccc3OC)cn(CC(C)C)c(=O)c2cc1OC | inconclusive: 3.26 µM [cytotoxic, full curve, poor fit] | – |
| O=C(NCc1ccccc1)c1ccc(S(=O)(=O)N2CCCc3ccccc32)cc1 | – | inconclusive: -32.7% [cytotoxic] |
| CCOCCCn1c(SCC(=O)N2CCOCC2)nc2ccccc2c1=O | inconclusive: 29.1 µM [cytotoxic, single point] | – |
| CC12CC(c3ccccc3O1)N(C(=O)c1ccc(Br)o1)C(=O)N2c1ccccc1 (stereo not given) | inconclusive: 16.4 µM [cytotoxic, partial curve] | – |
| CCCC(=O)NC(c1ccccc1Cl)c1ccc2cccnc2c1O (stereo not given) | inconclusive: 29.1 µM [cytotoxic, single point] | – |
| COC(=O)c1ccc(NC(=O)Nc2ccc(F)cc2)cc1 | – | inactive: -29.2% |
| COc1ccc(C)cc1Nc1n[n+](-c2ccccc2)c(-c2ccc(NC(C)=O)cc2)s1 | – | inactive: -6.62% |
| CC(C)(C)CCN1CCC(CN2CCNC2=S)CC1 | inconclusive: 29.1 µM [cytotoxic, single point] | – |
| Cc1c(OCC(=O)NCC(O)c2ccccc2)ccc2c3c(c(=O)oc12)CCCC3 (stereo not given) | – | inactive: -2.51% |
| COc1cc(NC(=S)NC2CC2)c(OC)cc1Cl | – | inactive: -3.43% |
| CC(C)(C)S(=O)N1Cc2cc(C(=O)NCCCN3CCOCC3)nc(-c3cccc(-c4cc5ccccc5o4)c3)c2[C@H]1CCO (stereo not given in full) | – | inactive: -18.9% |
| Cn1cc([N+](=O)[O-])c(C(=O)Nc2cc(Oc3cccnc3)cc([N+](=O)[O-])c2)n1 | inconclusive: 18.4 µM [cytotoxic, single point] | – |
| O=C(CN(CC1CCCO1)C(=O)CNS(=O)(=O)c1ccc(Cl)cc1)NC1CCCC1 (stereo not given) | inconclusive: 25.9 µM [rising, single point] | – |
| Cc1nc(N2CCN(Cc3ccccc3)CC2)c(C#N)c2c1COC(C)(C)C2 | inconclusive: 10.3 µM [cytotoxic, partial curve] | – |
| Cc1ccccc1CNC(=O)CCC(=O)N1CC2CCCN2c2ccccc21 (stereo not given) | – | inactive: -5.25% |
| Cc1ccc(C(=O)OCC(=O)Nc2ccc3[nH]c(=O)[nH]c3c2)cc1[N+](=O)[O-] | inconclusive: 16.4 µM [rising, single point] | – |
| CN1CCN(c2cccc(Nc3nn4c(=O)c5ccccc5nc4s3)c2)CC1 | – | inactive: -9.89% |
| NNc1nc(Nc2ccc([N+](=O)[O-])cc2)nc(N2CCCCCC2)n1 | – | inactive: 0% |

| SMILES | Potency | activity change, negative = cytotoxicity |
| --- | --- | --- |
| CCOc1ccc(CNc2nnnn2C)cc1OC | inconclusive: 18.4 µM [rising, partial curve, poor fit] | – |
| CN(C)S(=O)(=O)c1ccc(Cl)c(NC(=O)CN2CCCCCC2)c1 | inconclusive: 8.2 µM [cytotoxic, partial curve, poor fit] | – |
| CCOc1ccc(S(=O)(=O)N2CCN(Cc3ccccc3)CC2)c2cccnc12 | inconclusive: 18.4 µM [cytotoxic, single point] | – |
| CCOC(=O)c1ccn(CSc2c(F)c(F)cc(F)c2F)n1 | – | inactive: 0% |
| COc1ccc2cc(C(=O)C3CCCN(Cc4cnc(N5CCOCC5)s4)C3)ccc2c1 (stereo not given) | inconclusive: 0.411 µM [cytotoxic, full curve, poor fit] | – |
| O=C(CC(c1ccccc1)c1ccccc1)Nc1ccncc1 | inconclusive: 29.1 µM [cytotoxic, single point] | – |
| CC1CCN(CCCNC(=O)c2cc3c(Cl)nc4ccccc4c3s2)CC1 | – | inactive: -3.34% |
| CC1CCN(S(=O)(=O)c2ccc3c(c2)N(CC(=O)N2CCN(c4ccccc4)CC2)C(=O)CO3)CC1 | inconclusive: 10.3 µM [cytotoxic, partial curve, poor fit] | – |
| O=C(CN1CCCC1)Nc1ccccc1Sc1ccccc1 | inconclusive: 25.9 µM [cytotoxic, single point] | – |
| CC(SC1=Nc2ccccc2C2CC=NN12)C(=O)NC1(C#N)CCCCC1 (stereo not given) | inconclusive: 8.2 µM [cytotoxic, partial curve] | – |
| Cc1[nH]n(C(C)(C)C)c(=O)c1Sc1ccc(Cl)cc1 | inconclusive: 18.4 µM [cytotoxic, single point] | – |
| O=C(CN1C(=O)c2ccccc2S1(=O)=O)N1CCN(c2ccccc2F)CC1 | inconclusive: 23.1 µM [rising, partial curve, poor fit] | – |
| Cc1ccc(OCCN(C)C(=O)C2CCC(=O)N(CCCN3CCCC3=O)C2)cc1 (stereo not given) | inconclusive: 16.4 µM [rising, single point] | – |
| CCc1ccc(N(C(=O)CNC(=O)c2ccco2)C(C(=O)NC2CCCC2)c2cccnc2)cc1 (stereo not given) | – | inactive: -19.1% |
| Cc1ccc(-c2nc(CS(=O)CC(=O)NCc3ccco3)c(C)o2)cc1 (stereo not given) | – | inactive: -7.08% |
| C#CCOCCOCCOCCNc1nc(N2CCN(C(=O)Cn3cc(CCCN=C(N)N)nn3)CC2)nc(N2CCN(C(=O)Cn3cc(CC(C)O)nn3)CC2)n1 (stereo not given) | inconclusive: 20.6 µM [rising, single point] | – |
| CN(C)CCN=Cc1c(O)n(Cc2ccccc2)c(=O)c2ccccc12 | inconclusive: 20.6 µM [cytotoxic, single point] | – |
| COC(=O)CCC(=O)Nc1sc(C)c(C)c1C(N)=O | inconclusive: 23.1 µM [rising, single point] | – |
| Cc1ccc(C(=O)NC(=S)N2CCN(c3cc(C)ccc3C)CC2)cc1 | inconclusive: 13 µM [cytotoxic, single point] | – |
| Cc1ccc(S(=O)(=O)Nc2cc(C(F)(F)F)ccc2N2CCOCC2)cc1C | inconclusive: 29.1 µM [cytotoxic, single point] | – |
| Cc1ccc(NC(=O)c2ccc3[nH]c(C)cc(=O)c3c2)c(C)c1 | inconclusive: 25.9 µM [rising, single point] | – |
| COc1ccc(/C=C/C(=O)Nc2cccc(S(=O)(=O)NC3=NCCCCC3)c2)cc1 | inconclusive: 0.0052 µM [cytotoxic, full curve, poor fit] | – |
